# ± gives the standard deviation of the averaged measurements. The list shows a part of the results, in another mix than the full data. Small differences around the control level are noise.
# Protein sequences, listed by entry. Tags and fused reporters are not part of them. Lines headed by an entry give the natural chain unless they say otherwise; changes in a name come on top.
# UniProt Q9Y485, whole entry: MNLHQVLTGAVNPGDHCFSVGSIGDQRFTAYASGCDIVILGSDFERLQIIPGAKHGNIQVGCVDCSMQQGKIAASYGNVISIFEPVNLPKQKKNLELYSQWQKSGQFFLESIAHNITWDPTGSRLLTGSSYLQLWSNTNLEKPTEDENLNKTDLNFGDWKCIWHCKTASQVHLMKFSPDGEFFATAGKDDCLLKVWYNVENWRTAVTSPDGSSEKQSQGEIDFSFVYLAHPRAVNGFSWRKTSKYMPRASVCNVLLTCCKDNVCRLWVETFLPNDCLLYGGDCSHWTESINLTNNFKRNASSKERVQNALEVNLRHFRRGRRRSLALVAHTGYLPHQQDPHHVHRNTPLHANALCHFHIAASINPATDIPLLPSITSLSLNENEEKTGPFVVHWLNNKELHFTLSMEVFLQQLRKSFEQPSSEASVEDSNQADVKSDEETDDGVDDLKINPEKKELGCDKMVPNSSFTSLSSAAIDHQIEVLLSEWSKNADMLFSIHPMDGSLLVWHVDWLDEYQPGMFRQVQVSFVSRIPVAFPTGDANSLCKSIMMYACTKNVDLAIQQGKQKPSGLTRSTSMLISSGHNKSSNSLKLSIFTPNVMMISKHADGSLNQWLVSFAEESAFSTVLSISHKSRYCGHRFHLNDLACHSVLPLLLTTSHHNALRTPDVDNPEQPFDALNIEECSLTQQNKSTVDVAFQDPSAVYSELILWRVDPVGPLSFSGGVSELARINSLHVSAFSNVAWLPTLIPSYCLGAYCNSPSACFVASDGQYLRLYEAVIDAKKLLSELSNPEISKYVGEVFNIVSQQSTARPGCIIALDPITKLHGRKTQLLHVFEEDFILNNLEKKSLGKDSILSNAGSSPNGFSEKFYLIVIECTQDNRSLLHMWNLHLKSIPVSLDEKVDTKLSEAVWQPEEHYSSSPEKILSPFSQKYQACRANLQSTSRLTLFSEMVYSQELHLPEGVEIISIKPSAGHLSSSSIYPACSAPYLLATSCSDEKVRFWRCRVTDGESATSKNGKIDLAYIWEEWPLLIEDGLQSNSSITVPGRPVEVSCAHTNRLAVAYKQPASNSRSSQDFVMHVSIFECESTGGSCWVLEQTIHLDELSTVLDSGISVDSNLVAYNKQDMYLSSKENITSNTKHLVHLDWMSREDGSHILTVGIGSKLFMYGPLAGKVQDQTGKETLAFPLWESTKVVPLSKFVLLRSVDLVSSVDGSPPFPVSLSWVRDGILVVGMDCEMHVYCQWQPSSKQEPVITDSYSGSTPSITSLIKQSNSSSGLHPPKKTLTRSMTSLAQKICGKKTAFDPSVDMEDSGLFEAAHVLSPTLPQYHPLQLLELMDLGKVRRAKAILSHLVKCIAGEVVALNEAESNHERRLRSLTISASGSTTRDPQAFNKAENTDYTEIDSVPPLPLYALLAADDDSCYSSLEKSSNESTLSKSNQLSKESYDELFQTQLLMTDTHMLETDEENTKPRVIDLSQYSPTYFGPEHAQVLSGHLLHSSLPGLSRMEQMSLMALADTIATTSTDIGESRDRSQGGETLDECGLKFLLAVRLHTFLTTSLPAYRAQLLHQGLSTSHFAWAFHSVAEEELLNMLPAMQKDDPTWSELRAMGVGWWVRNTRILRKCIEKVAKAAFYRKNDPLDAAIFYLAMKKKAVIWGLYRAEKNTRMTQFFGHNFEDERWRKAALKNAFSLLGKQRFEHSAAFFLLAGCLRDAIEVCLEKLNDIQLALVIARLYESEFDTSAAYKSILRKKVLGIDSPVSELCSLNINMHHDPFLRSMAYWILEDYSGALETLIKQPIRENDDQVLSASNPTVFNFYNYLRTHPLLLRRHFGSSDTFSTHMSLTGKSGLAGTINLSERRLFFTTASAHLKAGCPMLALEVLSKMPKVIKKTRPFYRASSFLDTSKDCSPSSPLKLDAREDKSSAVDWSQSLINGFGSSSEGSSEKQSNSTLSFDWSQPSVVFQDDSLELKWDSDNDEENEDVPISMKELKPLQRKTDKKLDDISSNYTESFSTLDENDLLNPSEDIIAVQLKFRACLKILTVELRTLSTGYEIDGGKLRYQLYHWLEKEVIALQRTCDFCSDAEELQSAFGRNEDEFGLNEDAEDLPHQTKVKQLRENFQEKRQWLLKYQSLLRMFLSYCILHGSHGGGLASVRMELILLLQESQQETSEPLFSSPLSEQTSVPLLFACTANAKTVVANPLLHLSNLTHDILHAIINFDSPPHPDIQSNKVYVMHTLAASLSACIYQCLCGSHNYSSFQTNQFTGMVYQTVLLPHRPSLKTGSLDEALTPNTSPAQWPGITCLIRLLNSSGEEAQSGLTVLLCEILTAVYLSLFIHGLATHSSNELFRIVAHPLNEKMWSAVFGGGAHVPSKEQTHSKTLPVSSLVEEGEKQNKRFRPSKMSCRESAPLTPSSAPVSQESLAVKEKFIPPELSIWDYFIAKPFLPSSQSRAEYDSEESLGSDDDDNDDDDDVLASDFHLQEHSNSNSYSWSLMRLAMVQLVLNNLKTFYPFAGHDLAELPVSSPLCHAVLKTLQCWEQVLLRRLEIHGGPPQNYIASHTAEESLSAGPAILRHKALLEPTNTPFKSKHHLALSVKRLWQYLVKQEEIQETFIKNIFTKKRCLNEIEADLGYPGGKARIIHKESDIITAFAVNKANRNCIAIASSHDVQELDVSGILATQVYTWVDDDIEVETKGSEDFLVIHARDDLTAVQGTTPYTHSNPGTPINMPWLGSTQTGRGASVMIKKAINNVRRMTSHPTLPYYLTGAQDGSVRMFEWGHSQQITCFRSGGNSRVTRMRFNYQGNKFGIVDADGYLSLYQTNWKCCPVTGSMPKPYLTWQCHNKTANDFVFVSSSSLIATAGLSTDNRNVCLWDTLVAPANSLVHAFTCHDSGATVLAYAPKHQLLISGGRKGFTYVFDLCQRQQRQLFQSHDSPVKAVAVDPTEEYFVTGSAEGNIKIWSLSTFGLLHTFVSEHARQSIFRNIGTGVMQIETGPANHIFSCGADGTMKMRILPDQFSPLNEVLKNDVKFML
# UniProt Q567U6, whole entry: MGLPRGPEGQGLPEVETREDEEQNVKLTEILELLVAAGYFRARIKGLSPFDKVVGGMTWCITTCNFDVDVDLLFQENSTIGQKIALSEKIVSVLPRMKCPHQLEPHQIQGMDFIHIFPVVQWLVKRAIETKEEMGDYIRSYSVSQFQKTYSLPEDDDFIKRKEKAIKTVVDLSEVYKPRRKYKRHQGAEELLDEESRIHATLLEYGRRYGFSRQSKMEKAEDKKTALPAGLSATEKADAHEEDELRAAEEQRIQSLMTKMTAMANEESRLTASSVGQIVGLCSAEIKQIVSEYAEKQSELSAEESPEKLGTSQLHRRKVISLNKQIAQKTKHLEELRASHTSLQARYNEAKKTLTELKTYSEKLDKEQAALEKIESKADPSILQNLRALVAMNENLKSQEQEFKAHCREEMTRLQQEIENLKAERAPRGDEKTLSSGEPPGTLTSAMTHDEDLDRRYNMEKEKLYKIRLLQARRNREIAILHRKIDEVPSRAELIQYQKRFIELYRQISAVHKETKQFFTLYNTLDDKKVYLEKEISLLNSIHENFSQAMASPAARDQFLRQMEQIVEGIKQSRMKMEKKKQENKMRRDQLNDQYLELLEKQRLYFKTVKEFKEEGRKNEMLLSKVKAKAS
# UniProt P48382: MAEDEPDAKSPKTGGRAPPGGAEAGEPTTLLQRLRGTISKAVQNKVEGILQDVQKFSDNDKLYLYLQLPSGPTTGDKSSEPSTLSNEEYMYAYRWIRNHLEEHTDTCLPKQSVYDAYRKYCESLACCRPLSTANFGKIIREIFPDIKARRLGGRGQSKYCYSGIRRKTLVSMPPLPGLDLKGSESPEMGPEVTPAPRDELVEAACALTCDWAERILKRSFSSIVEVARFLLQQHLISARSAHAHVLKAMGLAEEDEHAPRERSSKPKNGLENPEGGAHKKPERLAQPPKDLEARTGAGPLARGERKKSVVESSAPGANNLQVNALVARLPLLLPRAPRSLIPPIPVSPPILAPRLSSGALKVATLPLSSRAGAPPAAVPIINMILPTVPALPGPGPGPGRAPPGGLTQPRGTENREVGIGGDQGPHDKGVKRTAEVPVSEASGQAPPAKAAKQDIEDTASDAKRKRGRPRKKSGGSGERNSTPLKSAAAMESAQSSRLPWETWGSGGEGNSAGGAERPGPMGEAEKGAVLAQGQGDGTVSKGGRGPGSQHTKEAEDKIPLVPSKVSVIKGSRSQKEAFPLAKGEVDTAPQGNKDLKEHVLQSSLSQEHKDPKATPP
# UniProt Q9Y2W6: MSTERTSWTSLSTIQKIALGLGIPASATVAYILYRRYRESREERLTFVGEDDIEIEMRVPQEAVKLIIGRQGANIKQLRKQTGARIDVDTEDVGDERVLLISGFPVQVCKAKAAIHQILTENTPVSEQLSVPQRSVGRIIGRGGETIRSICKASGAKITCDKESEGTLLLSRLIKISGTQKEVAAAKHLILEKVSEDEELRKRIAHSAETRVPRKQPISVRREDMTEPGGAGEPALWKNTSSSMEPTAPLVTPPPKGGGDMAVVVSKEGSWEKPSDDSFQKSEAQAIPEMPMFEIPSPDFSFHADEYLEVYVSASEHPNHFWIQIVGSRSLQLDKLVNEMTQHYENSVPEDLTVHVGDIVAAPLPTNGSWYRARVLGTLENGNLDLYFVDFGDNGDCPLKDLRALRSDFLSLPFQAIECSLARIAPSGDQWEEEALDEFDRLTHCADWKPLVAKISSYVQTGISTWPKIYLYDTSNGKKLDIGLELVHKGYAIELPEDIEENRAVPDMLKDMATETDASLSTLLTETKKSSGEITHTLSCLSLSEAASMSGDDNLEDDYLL
# UniProt Q9Y4P3: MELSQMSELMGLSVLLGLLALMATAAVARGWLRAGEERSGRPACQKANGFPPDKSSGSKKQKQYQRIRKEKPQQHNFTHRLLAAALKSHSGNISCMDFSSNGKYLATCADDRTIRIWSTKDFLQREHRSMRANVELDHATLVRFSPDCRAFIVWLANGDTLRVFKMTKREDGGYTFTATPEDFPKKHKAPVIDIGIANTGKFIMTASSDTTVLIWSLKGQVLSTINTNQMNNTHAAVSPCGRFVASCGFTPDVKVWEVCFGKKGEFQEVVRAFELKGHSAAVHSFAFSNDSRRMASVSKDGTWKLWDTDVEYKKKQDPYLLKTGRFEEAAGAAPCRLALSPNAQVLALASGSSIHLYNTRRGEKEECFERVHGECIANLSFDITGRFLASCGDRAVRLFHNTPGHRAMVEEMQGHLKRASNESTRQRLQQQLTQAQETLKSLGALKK
# UniProt P08195: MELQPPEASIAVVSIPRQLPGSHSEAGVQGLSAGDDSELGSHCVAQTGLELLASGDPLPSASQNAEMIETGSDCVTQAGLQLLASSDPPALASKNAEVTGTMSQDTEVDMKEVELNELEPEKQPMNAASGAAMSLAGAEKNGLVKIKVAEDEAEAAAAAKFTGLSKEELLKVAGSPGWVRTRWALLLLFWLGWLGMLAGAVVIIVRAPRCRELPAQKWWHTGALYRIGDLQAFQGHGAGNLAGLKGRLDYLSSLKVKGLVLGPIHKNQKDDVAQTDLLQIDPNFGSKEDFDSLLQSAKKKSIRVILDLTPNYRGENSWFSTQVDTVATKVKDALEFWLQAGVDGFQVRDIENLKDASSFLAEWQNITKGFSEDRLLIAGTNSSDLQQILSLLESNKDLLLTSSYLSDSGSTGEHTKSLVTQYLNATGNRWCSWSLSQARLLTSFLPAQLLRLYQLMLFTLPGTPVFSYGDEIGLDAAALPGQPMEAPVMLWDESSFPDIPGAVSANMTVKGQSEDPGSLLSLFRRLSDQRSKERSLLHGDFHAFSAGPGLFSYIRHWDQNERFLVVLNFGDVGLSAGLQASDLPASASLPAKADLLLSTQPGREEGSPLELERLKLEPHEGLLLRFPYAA
# UniProt Q9NUJ3: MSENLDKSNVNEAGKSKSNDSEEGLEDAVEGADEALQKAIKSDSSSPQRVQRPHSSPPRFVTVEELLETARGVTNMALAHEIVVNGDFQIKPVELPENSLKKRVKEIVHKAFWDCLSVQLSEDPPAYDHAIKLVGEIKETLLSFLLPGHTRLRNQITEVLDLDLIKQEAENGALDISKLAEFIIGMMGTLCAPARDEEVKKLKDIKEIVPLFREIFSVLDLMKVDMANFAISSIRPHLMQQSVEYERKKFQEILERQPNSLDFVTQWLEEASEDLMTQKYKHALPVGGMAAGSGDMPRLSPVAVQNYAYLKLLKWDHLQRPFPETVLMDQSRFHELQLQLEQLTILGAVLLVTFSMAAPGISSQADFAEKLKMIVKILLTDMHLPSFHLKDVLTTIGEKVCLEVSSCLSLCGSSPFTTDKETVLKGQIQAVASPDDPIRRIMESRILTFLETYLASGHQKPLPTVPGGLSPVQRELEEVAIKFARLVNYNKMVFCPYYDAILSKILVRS
# Compound: Nc1ncnc2c1ncn2[C@@H]1O[C@H](COP(=O)(O)OP(=O)(O)NP(=O)(O)O)[C@@H](O)[C@H]1O [adenylyl imidodiphosphate]
# Test: NP40-soluble protein abundance relative to vehicle (solubility fold change) (ratio); higher = more soluble protein in presence of AMP-PNP
# Settings: concentration: 0.1mM
# Summary of the method: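 Jurkat crude lysate (Dounce-homogenised) was treated with eight concentrations from 0.1 to 10 mM for 10 min at room temperature, then 3 min at 37 °C. It was solubilised with 0.8% NP40 and benzonase (60 min, 4 °C) and ultracentrifuged, and the supernatant was TMT-labelled for LC-MS/MS. Intensities were vsn-normalised, and the value is the fold change against the NP40-processed vehicle per replicate, from three independent experiments.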
row,Target,NP40-soluble protein abundance
1,F5H0F9 and related entries (UniProt Q9UJX4),1.02 ± 0.035
2,F5H269 and related entries (UniProt Q9Y485),0.987 ± 0.033
3,F8W9X7 and related entries (UniProt Q567U6),0.98 ± 0.017
4,F8VU90 and related entries (UniProt Q9NYL4),1.01 ± 0.057
5,E9PIK4 and related entries (UniProt O14683),0.973 ± 0.022
6,F8W689 and related entries (UniProt P48382),1 ± 0.037
7,E9PGC0 and related entries (UniProt P20936),1.02 ± 0.019
8,F8W7U0 and related entries (UniProt Q15811),0.998 ± 0.021
9,F8VRH0 and related entries (UniProt Q15366),0.998 ± 0.053
10,G3V3G9 (UniProt P40855),0.9885 ± 0.0094
11,F8VS36 and related entries (UniProt Q92994),1.09 ± 0.049
12,F6TB26 and related entries (UniProt Q9Y2W6),0.968 ± 0.027
13,E7ESH4 and related entries (UniProt P10809),0.967 ± 0.055
14,F8WEW6 and related entries (UniProt O76064),0.928 ± 0.017
15,E9PPZ9 and related entries (UniProt O43292),1.04 ± 0.065
16,F8WDV0 and related entries (UniProt Q9UI26),1 ± 0.065
17,F5H610 and related entries (UniProt Q9Y478),0.989 ± 0.047
18,E9PF19 and related entries (UniProt Q9Y4P3),0.974 ± 0.026
19,E7EMD6 and related entries (UniProt O43572),0.987 ± 0.028

# Quoted from the listing:
# In NP40-soluble protein abundance, E9PGC0 and related entries (UniProt P20936) is listed with 1.02 ± 0.019
# In NP40-soluble protein abundance, F8W9X7 and related entries (UniProt Q567U6) is listed with 0.98 ± 0.017

# (listing goes on)

row,Target,NP40-soluble protein abundance
1,F8WCF6 and related entries (UniProt P59998),1.02 ± 0.024
2,F5H212 and related entries (UniProt P15822),0.987 ± 0.042
3,E7EPM6 and related entries (UniProt P33121),0.986 ± 0.02
4,F5GXG6 and related entries (UniProt Q13889),1.02 ± 0.016
5,E7EXA6 and related entries (UniProt Q8WVB6),1.01 ± 0.019
6,F6T1Q0 and related entries (UniProt Q6L8Q7),1 ± 0.057
7,E7ETU7 and related entries (UniProt P09001),1.06 ± 0.058
8,E7ESY0 and related entries (UniProt P32019),1 ± 0.04
9,E9PBG7 and related entries (UniProt Q13557),0.99 ± 0.05
10,F8VU11 and related entries (UniProt Q6NWY9),0.98482 ± 0.00015
11,E7ERD7 and related entries (UniProt Q9UKU0),1.01 ± 0.036
12,F5GZS6 and related entries (UniProt P08195),1 ± 0.033
13,E7EVH9 and related entries (UniProt Q08623),0.971 ± 0.013
14,E9PQY3 and related entries (UniProt P11117),1.01 ± 0.02
15,E9PJ55 and related entries (UniProt Q9NUJ3),0.997 ± 0.056
16,F5H2B9 and related entries (UniProt Q9BZF9),0.986 ± 0.064
17,E7ETA6 and related entries (UniProt Q15154),1 ± 0.05
18,E5RI98 and related entries (UniProt P06748),0.96 ± 0.034
19,E7EQY1 and related entries (UniProt Q96C01),0.975 ± 0.026

# Reference: the supplement of paper PMC6411743
